Results published in patent US12622941B2, “Anticoccidial composition comprising ginkgo leaves and use thereof” (CJ CHEILJEDANG CORPORATION, priority 2020, dated 2026).
Some results were stated once for a whole list of compounds, not compound by compound.

Experiments:
Format in all cases: cell-based
Eimeria maxima = test: Direct killing of protozoa (sporozoites), Eimeria maxima; details: tested 1 to 500 ppm, vs PBS control, listed as gallic acid
Procedure: (§1) In the present example, protozoan (sporozoite) direct killing ability evaluation was conducted against 3 representative Eimeria kinds known to be infected in most farms (E. tenella, E. acervulina, E. maxima).
(§2) A certain amount of oocysts of each protozoan was put in a tube containing glass beads and pulverized, and then to remove the crushed oocyst cell wall and other debris, internal sporocysts were purified using the percoll density gradient, and washed with PBS solution. A reagent comprising sodium taurocholic acid (Sigma aldrich, USA) and trypsin (Gibco, USA), respectively, was treated to sporocysts of Eimeria tenella, Eimeria acervulina and Eimeria maxima for excystation and they were incubated, and then they were washed with PBS solution once and protozoa were obtained.

Eimeria acervulina [1] = test: Direct killing of protozoa (sporozoites), Eimeria acervulina; details: tested 1 to 500 ppm, vs PBS control, listed as gallic acid
Procedure: as §1, §2

Eimeria acervulina [2] = test: Eimeria acervulina sporozoite death rate by component of ginkgo leaf powder; details: from Table 12, tested 8 to 500 ppm
Procedure: as §2

SMILES	Minimum concentration for killing 50% protozoa (sporozoites) (ppm) (Eimeria maxima)	Minimum concentration for killing 50% protozoa (sporozoites) (ppm) (Eimeria acervulina [1])	concentration showing death rate of 50% or more of Eimeria Acervulina protozoan (Eimeria acervulina [2]) [ppm]	concentration showing killing ability of the Eimeria Acervulina protozoan (Eimeria acervulina [2]) [ppm]
O=C(O)c1cc(O)c(O)c(O)c1 [Gallic acid, gallic acid]	> 500	> 500	–	–
O=c1c(O)c(-c2ccc(O)c(O)c2)oc2cc(O)cc(O)c12 [Quercetin]	–	–	≥ 500	≥ 63
O=c1c(O)c(-c2ccc(O)cc2)oc2cc(O)cc(O)c12 [Kaempferol]	–	–	≥ 500	≥ 125
